Test results taken from patent US10821110B2, “Composite preparation, containing novel 3-(4--(benzyloxy)phenyl)hex-4-inoic acid derivative and another active ingredient, for preventing or treating metabolic diseases” (HYUNDAI PHARM CO., LTD., priority 2014, dated 2020).
Some results were stated once for a whole list of compounds, not compound by compound.

Assays:
[1] = test system: Male Goto-Kakizaki (GK) rats, non-obese type II diabetic models; assay: Oral glucose tolerance test (OGTT) 2; type: in vivo, rat; conditions: 10 mg/kg, values in text
[2] = test system: Male Otsuka Long-Evans Tokushima fatty (OLETF) rats, obese type II diabetic models; assay: Oral glucose tolerance test (OGTT) 3; type: in vivo, rat; conditions: 10 mg/kg, values in text

CC#C[C@@H](CC(=O)O)c1ccc(OCc2cccc(C3=CCC4(CC3)OCCO4)c2)cc1 [Example 9, L-lysine (3S)-3-(4-(3-(1,4-dioxaspiro[4.5]dec-7-en-8-yl)benzyloxy)phenyl)hex-4-ynoate]
blood glucose lowering effect [1]: ≥ 35.0% | blood glucose lowering effect [2]: ≥ 35.0%

CC#C[C@@H](CC(=O)[O-])c1ccc(OCc2ccc(CN3Cc4ccccc4C3)cc2)cc1.[Na+] [Example 37, sodium (S)-3-(4-(4-(isoindolin-2-ylmethyl)benzyloxy)phenyl)hex-4-ynoate]
blood glucose lowering effect [1]: ≥ 35.0% | blood glucose lowering effect [2]: ≥ 35.0%
